# Laboratory results: patent EP4610271B1 (Success Bio-Tech Co., Ltd., priority 2023, dated 2026)
# HELM strings list residues between dots; [ac] is acetyl, [am] amide, other brackets name non-standard units.
# Test: general procedure: Fmoc solid-phase peptide synthesis; Rink Amide-AM resin; DIC/HOBT
# Details: whole synthesis, scale of the general procedure 2.10 g resin, optionally acetate or hydrochloride salt
substance,measurement,value
PEPTIDE1{[ac].P.R.V.D.V.R.V.R.V.R.V.D.P.[am]}$$$$V2.0,final purity (method not given),up to 97%
